Results: PMC9520404
A negative result means that nothing was seen under these conditions. For at least one entry, the source does not settle the construct or the ends of the probe. The comparison behind a weaker result is the experiment's own reference, which may not be listed here.

The chains behind the UniProt entries cited, without tags or fusion partners.
UniProt P08670, whole entry: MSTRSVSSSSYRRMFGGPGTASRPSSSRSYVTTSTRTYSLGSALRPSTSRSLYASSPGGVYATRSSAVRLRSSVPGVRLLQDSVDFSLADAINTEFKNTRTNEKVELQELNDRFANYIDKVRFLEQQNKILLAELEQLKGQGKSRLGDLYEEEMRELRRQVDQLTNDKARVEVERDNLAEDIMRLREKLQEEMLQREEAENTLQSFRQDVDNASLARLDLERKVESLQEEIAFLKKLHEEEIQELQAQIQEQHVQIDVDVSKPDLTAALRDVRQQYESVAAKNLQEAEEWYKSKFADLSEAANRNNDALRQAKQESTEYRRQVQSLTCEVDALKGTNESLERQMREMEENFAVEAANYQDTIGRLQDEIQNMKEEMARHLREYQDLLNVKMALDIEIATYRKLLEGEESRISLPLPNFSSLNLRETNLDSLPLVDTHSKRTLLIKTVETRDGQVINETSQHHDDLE

Target: Vimentin (human) (UniProt P08670)
Assay: EMSA
Details: DNA not annealed (equilibrated in 150 mM KCl), 8 uM Vimentin, 500 nM DNA; 5 mM Tris pH 8.4, 150 mM KCl, 1 h at room temperature; 1.5% agarose in 1x TBE + 10 mM KCl, run at 4 C; recombinant protein; residues 1-466; folded or branched DNA

## CGGGCGGGCGAGGGGCCGGGCCGCCGGGGCGGGGCGGGGCCGGGC [TEAD4-full]
  binding result: no binding

## CGGGCGGGCGAGGGGCCGGGTTGTTGGGGCGGGGCGGGGCCGGGC [TEAD4-full-2TT]
  binding result: binds more weakly
